# Measurements published in the supplement of paper PMC3334620.
# Whole data set: some 33,000 sequences, median “E-score (-0.5 to 0.5)” near -0.0034, cut for the highest 2% near 0.25. This is one part of the list.
# Target: T1, Yap3 (UniProt P38749)
# T1 sequence: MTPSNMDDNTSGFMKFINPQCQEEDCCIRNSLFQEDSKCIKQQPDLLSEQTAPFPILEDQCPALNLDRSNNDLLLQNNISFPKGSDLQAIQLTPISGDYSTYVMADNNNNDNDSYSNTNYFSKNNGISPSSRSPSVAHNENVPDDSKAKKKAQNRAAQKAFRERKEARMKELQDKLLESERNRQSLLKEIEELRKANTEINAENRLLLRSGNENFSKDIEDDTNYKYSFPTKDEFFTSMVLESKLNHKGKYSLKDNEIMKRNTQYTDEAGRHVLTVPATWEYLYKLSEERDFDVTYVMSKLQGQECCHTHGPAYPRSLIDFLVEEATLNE
# Assay: PBM E-score (8-mer binding enrichment) (E-score (-0.5 to 0.5)); higher = stronger / more preferred TF binding
# Details: protein concentration: 100 nM; construct: GST-full length
# Summary of the method: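 Yeast transcription factors carrying a GST tag, as full-length proteins or DNA-binding domains, were produced by PURExpress in vitro transcription/translation. About 100-200 nM protein was applied to universal all-10-mer Agilent arrays, double-stranded by primer extension on fresh or once-stripped slides. Bound protein was detected with fluorescent anti-GST, and scans were normalised with masliner. The Universal PBM Analysis Suite gave each ungapped eight-base word, pooled with its reverse complement, an E-score, a modified Wilcoxon-Mann-Whitney statistic.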
row,Sequence,PBM E-score
1,CTTTTATC,0.178
2,ACATGACC,-0.0596
3,TCAGATCA,-0.0696
4,GTACGAGA,-0.0384
5,AGTAAGAC,0.0181
6,GGTGAAAC,-0.0882
7,ACGCAGAG,-0.0117
8,GGTTAAGA,0.0435
9,AGTGTGGG,-0.0508
10,GGCGATTA,-0.0177
11,AGCAAAGG,0.0634
12,AATGCTAA,0.0709
13,CAGGCGAC,-0.196
14,AGCCGAGG,-0.052
15,AATTTGAA,0.131
16,GATCTAGC,-0.085
17,CCGATAAG,-0.051
18,CTATATGC,0.124
19,CGACGCTA,-0.0831
20,CATAAGCA,-0.0415
21,TAACACCA,0.0743
22,AACATACT,0.012
23,ACATGTTA,0.203
24,CTAGTATC,0.0604
25,ACCGCAGA,-0.219

row,Sequence,PBM E-score
1,GCTTATAA,0.129
2,AGGTCTAT,-0.0472
3,AGATCAAT,0.0101
4,TCTCGAGA,0.112
5,AGTCTGGC,-0.173
6,CGAACATC,0.0605
7,GTCCCAGA,-0.252
8,ACGACAGT,-0.0361
9,AATACTCA,0.16
10,TACGCGCA,0.134
11,ATAGTGGC,0.0134
12,ATAGGGGG,-0.194
13,AGTGGAGA,0.139
14,CTCACGAC,-0.195
15,CCCAAAAG,-0.165
16,AAGGCTGG,-0.241
17,GATTGAAA,0.132
18,AGCCTTAG,-0.154
19,AGGTGTGC,-0.0657
20,ACATTATG,0.211
21,CCCGTGCA,-0.177
22,CCTCAGAG,-0.258
23,CATGCTGA,0.00121
24,CAACGCCA,-0.0221
25,TTCCCAAA,0.167

row,Sequence,PBM E-score
1,TAAAAAGA,0.151
2,ACGTGCGC,-0.0191
3,CTTGACAC,-0.013
4,ATCCGGCC,0.101
5,GCCCTATA,-0.0486
6,ATACTGAA,0.101
7,AACACCTG,0.11
8,AGCCGCCG,0.0419
9,ATCATACG,0.0769
10,AAGGAACG,0.0874
11,ACTTCAGG,0.0125
12,AGAACATA,0.226
13,ATACGAGC,0.0821
14,GTTCTGTA,0.103
15,CATACTGG,-0.0447
16,ACCCCAGG,-0.307
17,CTTAACGC,-0.0679
18,AACCAGCT,0.122
19,AGTCAGAT,0.0191
20,CTGGAACC,-0.218
21,GAAGCATC,-0.103
22,CCAATGGA,-0.057
23,CAGCTGGC,-0.0595
24,CGTTGACC,0.00959
25,GAACATCA,0.116

# Exported with tabs: entries from further up
row	Sequence	PBM E-score
5	GCCCTATA	-0.0486
7	AACACCTG	0.11

# Next part

row,Sequence,PBM E-score
1,GCTCGTCC,-0.0119
2,ATGTGTAA,0.0322
3,CAGTGCGC,-0.191
4,ACGACGAC,-0.0916
5,CGTGATTA,0.176
6,CCAGGCGC,-0.166
7,GAGTTAAC,-0.0446
8,AGGCTATG,-0.162
9,AATCCATA,0.21
10,CGCGATAC,0.0418
11,CGGAATCC,-0.0654
12,CTCGTGCA,0.00219
13,ACTCACCG,-0.125
14,CGACTAGA,0.00357
15,CCAGGCTA,-0.286
16,AGAATCAC,-0.0577
17,CCACGTCG,-0.0823
18,ACAACGGG,0.121
19,GCTTACTA,0.237
20,AGGCGAGA,-0.0505
21,AGAATGAG,0.0677
22,ACAAGAAA,0.268
23,ACCAGGAC,-0.00979
24,GACACAAA,0.115
25,CCTTTCTA,0.0211

row,Sequence,PBM E-score
1,CGTAGGAC,-0.23
2,GTCCCAAA,-0.0311
3,CTAACTAC,-0.0894
4,TCACGTGA,-0.0216
5,CAGGCTCG,-0.176
6,GAAAATTA,0.207
7,GGAACAAA,0.311
8,GCGACTCA,0.00382
9,CTTGAGCA,-0.119
10,ACGGCAAT,0.285
11,CCGACGGA,-0.0851
12,GTAGGACA,0.00183
13,CATTTGAC,0.0765
14,CGTCTGTA,-0.0799
15,AGTATAAA,0.304
16,GCGCTCAC,-0.0475
17,ACAATGGG,0.141
18,GAGCGGGC,-0.179
19,ATGGGCAC,0.0442
20,AGGATGAA,0.0231
21,AGTAGAGA,0.0945
22,CTAGGACC,-0.26
23,CCCGCGTA,-0.109
24,TACCGGAA,0.0506
25,CTCGGTAC,-0.122

row,Sequence,PBM E-score
1,CCCGACAA,0.137
2,GCGCTATA,0.178
3,AGCTGCGG,-0.282
4,CACGTTAA,0.0332
5,TGAGACCA,-0.0671
6,ATCTGTTG,-0.0152
7,AAGCCTAG,-0.0823
8,CTGCACGC,-0.262
9,ACAGATCG,0.0514
10,AAAGCTCA,-0.16
11,AGACAATC,0.129
12,AGTCCCGG,-0.272
13,GAAACCCA,0.125
14,CTTAACAA,0.11
15,CGAGATAG,-0.214
16,CTTAAAAG,-0.236
17,TAATCCGA,0.0489
18,ACAAGATG,0.0992
19,AAGTTAGA,0.136
20,ATTCGCAG,0.121
21,ACAAGGAG,0.0399
22,AAATTGGC,0.0935
23,AACGGCTG,-0.119
24,AGCGCGAG,0.0432
25,AAGCCACG,0.0099

# Taken from above.
# TGAGACCA – PBM E-score: -0.0671
# AGTCCCGG – PBM E-score: -0.272
# AAATTGGC – PBM E-score: 0.0935
# ACAAGGAG – PBM E-score: 0.0399

# Remaining list, next part.

row,Sequence,PBM E-score
1,CCATACAC,0.00771
2,CCCAGTAA,-0.0208
3,ACCTGTAA,0.106
4,ACAGAAAT,0.052
5,TCGAAGAA,-0.0713
6,ACATCGAG,-0.0351
7,TTGTAAAA,0.219
8,CTTTATGC,0.109
9,GCGTTAAC,0.152
10,CCCTCCAA,-0.0901
11,AAGTGCAT,0.004
12,ACTATCTG,-0.0209
13,ACCAGAAA,0.0364
14,AGGCTCAT,-0.243
15,GAGGGCCC,-0.272
16,AAGCGCCT,-0.0906
17,CGAATTTA,0.136
18,GCAATGTA,0.0481
19,ACCCCTGC,-0.293
20,TAGGCATA,0.0333
21,GCATTGGC,-0.192
22,CACTTTGA,-0.123
23,ACTAATCC,0.0891
24,TGGTACAA,0.0741
25,CGGGAGGC,-0.392

row,Sequence,PBM E-score
1,ATTGGATC,0.00029
2,AACCGCGG,0.164
3,CTGAGTTA,-0.0606
4,TATTATGA,0.203
5,GCCTGCCC,-0.297
6,CCTACAAC,0.125
7,GCACGTCA,-0.158
8,ATTTGTAG,0.117
9,ATCACGTA,0.311
10,GCCACACC,-0.0206
11,ACCAAAGC,-0.136
12,AGGGTGGG,0.079
13,ACGCGTGC,0.0228
14,AGAGCGAT,-0.15
15,ATCTCAGG,0.0486
16,AGCCAACA,0.00453
17,AGCCGGCA,-0.122
18,CATGTTAG,-0.0918
19,ATGATTTG,0.0669
20,CAGAAAAG,0.123
21,AAATCTCC,-0.186
22,AAGTCGAT,0.0754
23,TCATGCAA,0.214
24,CTGAATAC,0.134
25,AGCGATAC,-0.0569

row,Sequence,PBM E-score
1,CAGATAGG,-0.0454
2,CCCCCTAG,-0.341
3,GAAATCGC,-0.0263
4,ACGCGCAG,-0.0605
5,AACTGTTC,0.0651
6,AGCCCCAA,-0.152
7,CCTATGTC,-0.0131
8,CCACACTA,0.168
9,AATCCAGC,-0.0353
10,CAATTCGG,0.116
11,CTGGAGAA,-0.176
12,GATACCCC,-0.0154
13,ACTCATCT,0.115
14,AAGGGGAT,0.00955
15,ATATTCGC,0.191
16,GTCCGAGA,0.0651
17,CACATCGA,0.0577
18,AAGAACAT,0.247
19,CAAAGTTG,-0.125

# 5 entries from above, bar-delimited.
row | Sequence | PBM E-score
16 | ACCCCAGG | -0.307
17 | CTTAACGC | -0.0679
18 | AACCAGCT | 0.122
19 | AGTCAGAT | 0.0191
20 | CTGGAACC | -0.218
